The list shows a part of the results.
What was measured:
Assay in all cases: glycan array binding signal (z-score within array); higher = stronger binding
Conditions in all cases: glycan notation: IUPAC condensed, linker removed
[1] = target: Neu5Ac(a2-6)Gal(b1-4)GlcNAc(b1-2)Man(a1-3)[Man(a1-6)]Man(b1-4)GlcNAc(b1-4)GlcNAc
In short: (§1)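 Glycan array data were curated from 3228 arrays in the Consortium for Functional Glycomics database and kept only where the protein sequence was available. Glycan names were converted to IUPAC-condensed notation, and columns mapping to the same glycan were averaged. The binding signal is a within-array Z-score, averaged across arrays of the same protein sequence at different concentrations or buffers and across linkers. Negative Z-scores can be read as non-binding.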

[2] = target: Neu5Ac(a2-6)Gal(b1-4)GlcNAc(b1-2)Man(a1-3)[Neu5Ac(a2-3)Gal(b1-4)GlcNAc(b1-2)Man(a1-6)]Man(b1-4)GlcNAc(b1-4)GlcNAc
In short: as §1

[3] = target: Neu5Ac(a2-6)Gal(b1-4)GlcNAc(b1-2)Man(a1-3)[Neu5Ac(a2-6)Gal(b1-4)GlcNAc(b1-2)Man(a1-6)]Man(b1-4)GlcNAc(b1-4)GlcNAc
In short: as §1

[4] = target: Neu5Ac(a2-6)Gal(b1-4)GlcNAc(b1-2)Man(a1-3)[Neu5Ac(a2-6)Gal(b1-4)GlcNAc(b1-2)Man(a1-6)]Man(b1-4)GlcNAc(b1-4)[Fuc(a1-6)]GlcNAc
In short: as §1

[5] = target: Neu5Ac(a2-6)Gal(b1-4)GlcNAc(b1-2)Man(a1-6)Man(b1-4)GlcNAc(b1-4)GlcNAc
In short: as §1

[6] = target: Neu5Ac(a2-6)Gal(b1-4)GlcNAc(b1-2)Man(a1-6)[Gal(b1-4)GlcNAc(b1-2)Man(a1-3)]Man(b1-4)GlcNAc(b1-4)GlcNAc
In short: as §1

[7] = target: Neu5Ac(a2-6)Gal(b1-4)GlcNAc(b1-2)Man(a1-6)[GlcNAc(b1-2)Man(a1-3)]Man(b1-4)GlcNAc(b1-4)GlcNAc
In short: as §1

[8] = target: Neu5Ac(a2-6)Gal(b1-4)GlcNAc(b1-2)Man(a1-6)[Man(a1-3)]Man(b1-4)GlcNAc(b1-4)GlcNAc
In short: as §1

[9] = target: Neu5Ac(a2-6)Gal(b1-4)GlcNAc(b1-2)[Neu5Ac(a2-6)Gal(b1-4)GlcNAc(b1-4)]Man(a1-3)[GlcNAc(b1-4)][Neu5Ac(a2-6)Gal(b1-4)GlcNAc(b1-2)[Neu5Ac(a2-6)Gal(b1-4)GlcNAc(b1-6)]Man(a1-6)]Man(b1-4)GlcNAc(b1-4)GlcNAc
In short: as §1

[10] = target: Neu5Ac(a2-6)Gal(b1-4)GlcNAc(b1-2)[Neu5Ac(a2-6)Gal(b1-4)GlcNAc(b1-4)]Man(a1-3)[GlcNAc(b1-4)][Neu5Ac(a2-6)Gal(b1-4)GlcNAc(b1-4)Man(a1-6)]Man(b1-4)GlcNAc(b1-4)GlcNAc
In short: as §1

[11] = target: Neu5Ac(a2-6)Gal(b1-4)GlcNAc(b1-2)[Neu5Ac(a2-6)Gal(b1-4)GlcNAc(b1-6)]Man(a1-6)[Neu5Ac(a2-6)Gal(b1-4)GlcNAc(b1-2)Man(a1-3)][GlcNAc(b1-4)]Man(b1-4)GlcNAc(b1-4)GlcNAc
In short: as §1

[12] = target: Neu5Ac(a2-6)Gal(b1-4)GlcNAc(b1-3)Gal(b1-3)GlcNAc
In short: as §1

[13] = target: Neu5Ac(a2-6)Gal(b1-4)GlcNAc(b1-3)Gal(b1-4)GlcNAc
In short: as §1

[14] = target: Neu5Ac(a2-6)Gal(b1-4)GlcNAc(b1-3)Gal(b1-4)GlcNAc(b1-2)Man(a1-3)[Neu5Ac(a2-6)Gal(b1-4)GlcNAc(b1-3)Gal(b1-4)GlcNAc(b1-2)Man(a1-6)]GalNAc
In short: as §1

[15] = target: Neu5Ac(a2-6)Gal(b1-4)GlcNAc(b1-3)Gal(b1-4)GlcNAc(b1-3)Gal(b1-4)GlcNAc
In short: as §1

[16] = target: Neu5Ac(a2-6)Gal(b1-4)GlcNAc(b1-3)Gal(b1-4)GlcNAc(b1-3)Gal(b1-4)GlcNAc(b1-2)Man(a1-3)[Neu5Ac(a2-6)Gal(b1-4)GlcNAc(b1-3)Gal(b1-4)GlcNAc(b1-3)Gal(b1-4)GlcNAc(b1-2)Man(a1-6)]GalNAc
In short: as §1

[17] = target: Neu5Ac(a2-6)Gal(b1-4)GlcNAc(b1-3)Gal(b1-4)GlcNAc(b1-3)GalNAc
In short: as §1

[18] = target: Neu5Ac(a2-6)Gal(b1-4)GlcNAc(b1-3)Gal(b1-4)GlcNAc(b1-3)[Neu5Ac(a2-6)Gal(b1-4)GlcNAc(b1-3)Gal(b1-4)GlcNAc(b1-6)]GalNAc
In short: as §1

[19] = target: Neu5Ac(a2-6)Gal(b1-4)GlcNAc(b1-3)Gal(b1-4)GlcNAc(b1-6)[Gal(b1-3)]GalNAc
In short: as §1

[20] = target: Neu5Ac(a2-6)Gal(b1-4)GlcNAc(b1-3)Gal(b1-4)[Fuc(a1-3)]GlcNAc(b1-3)Gal(b1-4)[Fuc(a1-3)]GlcNAc
In short: as §1

[21] = target: Neu5Ac(a2-6)Gal(b1-4)GlcNAc(b1-3)GalNAc
In short: as §1

[22] = target: Neu5Ac(a2-6)Gal(b1-4)GlcNAc(b1-3)[Neu5Ac(a2-6)Gal(b1-4)GlcNAc(b1-6)]GalNAc
In short: as §1

[23] = target: Neu5Ac(a2-6)Gal(b1-4)GlcNAc(b1-6)GalNAc
In short: as §1

[24] = target: Neu5Ac(a2-6)Gal(b1-4)GlcNAc(b1-6)[Gal(b1-3)GlcNAc(b1-3)]Gal(b1-4)Glc
In short: as §1

[25] = target: Neu5Ac(a2-6)Gal(b1-4)GlcNAc(b1-6)[Gal(b1-3)]GalNAc
In short: as §1

[26] = target: Neu5Ac(a2-6)Gal(b1-4)GlcNAc6S
In short: as §1

Neu5Ac(a2-6)GalNAc = target: Neu5Ac(a2-6)GalNAc
In short: as §1

[27] = target: Neu5Ac(a2-6)GalNAc(b1-4)GlcNAc
In short: as §1

[28] = target: Neu5Ac(a2-6)GalNAc(b1-4)GlcNAc6S
In short: as §1

[29] = target: Neu5Ac(a2-6)GlcNAc(b1-4)GlcNAc
In short: as §1

[30] = target: Neu5Ac(a2-6)GlcNAc(b1-4)GlcNAc(b1-4)GlcNAc
In short: as §1

B1: PX14343F-bfa-562-20-562 (Bacteroides fragilis) (protein)
chain: CDDFLDSFPQDTVTNENFWKSKEDADKVLVDIYASLLPKDAIFFDEAMSDNAYLVWDWWGGAQQVANGSYTTSGEIPTNRWNGSYEVIRKCWFLLEGIEKIEDISEQDKNKIIGETYFMLAYNYYVLTSYFGDVPLVTKTLAIPESKQLVRTPKAEVVDYAINKLKEAAVMLEGLSQEKGRVTADACRFLIARMYLYNGDYSNVLETVKLLEGKYQLYREGDTPYEDLFSGVAENSCEVILSVVCDKRVGEIYTSHGGNGIMLLKGITGEDPYRGVTPSGSLVDAYPMADGRLIHEAGSSYDPKKPYEGRDPRFYQSIVYPTGQIKYLDVETGTVKERLYDPEDPTTVPEHQYNYSQPSATGYMWNKYIDYSVYAMNSVWDCTNDIIVFRYADVLLMKAEALLQTKGESAKEEVCNLIDQLRDRCSCGRVHRENYNSKDELMELLKNERRIELANEGLRYMDLIRWKDAEKNTIVTGVGLTGQMYGAYMRKDGVGKDDKTVDVDNTPRRYIETRYFNASKGYLFPIPQKERDLNPNLTQNPNW
glycan array binding signal (z-score) [1]: -0.577 | glycan array binding signal (z-score) [2]: -0.057 | glycan array binding signal (z-score) [3]: -0.2 | glycan array binding signal (z-score) [4]: 1.09 | glycan array binding signal (z-score) [5]: -0.713 | glycan array binding signal (z-score) [6]: -0.083 | glycan array binding signal (z-score) [7]: -0.28 | glycan array binding signal (z-score) [8]: 0.393 | glycan array binding signal (z-score) [9]: 0.464 | glycan array binding signal (z-score) [10]: 0 | glycan array binding signal (z-score) [11]: 0.203 | glycan array binding signal (z-score) [12]: -0.31 | glycan array binding signal (z-score) [13]: 0.45 | glycan array binding signal (z-score) [14]: -0.077 | glycan array binding signal (z-score) [15]: -0.047 | glycan array binding signal (z-score) [16]: 2.16 | glycan array binding signal (z-score) [17]: -0.22 | glycan array binding signal (z-score) [18]: -0.331 | glycan array binding signal (z-score) [19]: 0.129 | glycan array binding signal (z-score) [20]: -0.224 | glycan array binding signal (z-score) [21]: -0.734 | glycan array binding signal (z-score) [22]: -0.959 | glycan array binding signal (z-score) [23]: -0.146 | glycan array binding signal (z-score) [24]: 0.198 | glycan array binding signal (z-score) [25]: -0.61 | glycan array binding signal (z-score) [26]: 0.166 | glycan array binding signal (z-score) (Neu5Ac(a2-6)GalNAc): -1.21 | glycan array binding signal (z-score) [27]: -0.178 | glycan array binding signal (z-score) [28]: -0.3 | glycan array binding signal (z-score) [29]: -0.584 | glycan array binding signal (z-score) [30]: -0.673
